Data taken from PubChem BioAssay AID1963591, deposited by Tox21 (2024).

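HEK293T cells with a CRE beta-lactamase reporter, where the FRET ratio shows how compounds affect cAMP-driven signaling over roughly 3 hours.
Each compound was run as a concentration series, mostly reaching a top of 92.4 µM.
Fitted potency from the dose curve; a lower value means a more potent compound.
Calls come from the whole dose curve: active means a well-fitted inhibition curve with enough effect in repeat runs, inconclusive means weak, mixed or opposite-direction curves, and inactive means a flat curve.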

Values are in µM.
Every entry below has the call inconclusive.
Only part of the assay is shown, chiefly results filed as inconclusive.
Potencies fitted to partial, single-point or poorly fitting curves are rough.
Some entries filed as inconclusive have a full curve.
The first word of each remark tells which way the curve ran; it can be opposite to the aim of the assay.

{"smiles": "C[C@H](N)C(=O)N[C@@H](C)C(=O)NC1[C@H]2CN(c3nc4c(cc3F)c(=O)c(C(=O)O)cn4-c3ccc(F)cc3F)C[C@@H]12", "stereo": "stereo partly drawn", "potency (µM)": "37.58", "remark": "fluorescent, partial curve, poor fit"}
{"smiles": "CC(C)Cc1ccc(C(C)C(=O)O)cc1", "stereo": "stereo not drawn", "potency (µM)": "31.11", "remark": "fluorescent, partial curve, poor fit"}
{"smiles": "O=C(O)C(Br)CBr", "stereo": "stereo not drawn", "potency (µM)": "44.03", "remark": "activator, partial curve"}
{"smiles": "COC(C)(C)CCC[C@H](C)C/C=C/C(C)=C/C(=O)OC(C)C", "potency (µM)": "61.13", "remark": "activator, partial curve, poor fit"}
{"smiles": "CC(=O)Oc1ccccc1C(=O)Nc1ncc([N+](=O)[O-])s1", "potency (µM)": "13.33"}
{"smiles": "C[C@]12C/C(=C/O)C(=O)C[C@@H]1CC[C@@H]1[C@@H]2CC[C@@]2(C)[C@H]1CC[C@]2(C)O", "potency (µM)": "34.69", "remark": "fluorescent, partial curve"}
{"smiles": "O=C(O)CCCCCCCCCCCC(=O)O", "potency (µM)": "15.11", "remark": "fluorescent, full curve, poor fit"}
{"smiles": "CCN(Cc1cccnc1)C(=O)c1cccc(Cl)c1[C@]1(C)C(=O)N(Cc2ccc(OC)cc2OC)c2ccc(Cl)cc21", "potency (µM)": "18.06", "remark": "fluorescent, full curve"}
{"smiles": "O=C1N=C(O)CN1/N=C/c1ccc(-c2ccc([N+](=O)[O-])cc2)o1", "potency (µM)": "10.59", "remark": "fluorescent, partial curve"}
{"smiles": "c1cc2c3c(c1)ccc1cccc(c13)C2", "potency (µM)": "70.06", "remark": "fluorescent, partial curve, poor fit"}
{"smiles": "CC(C)(C)c1ccc(O)c(C(C)(C)C)c1", "potency (µM)": "19.33", "remark": "full curve"}
{"smiles": "O=c1[nH]sc2ccccc12", "potency (µM)": "61.13"}
{"smiles": "CCN=C1C=CC(=C(c2ccc(N(CC)CC)cc2)c2ccc(N(CC)CC)cc2)c2ccccc21", "potency (µM)": "17.12", "remark": "rising, partial curve"}
{"smiles": "Nc1cc(S(=O)(=O)O)cc2cc(S(=O)(=O)O)cc(O)c12", "potency (µM)": "68.59", "remark": "fluorescent"}
{"smiles": "CCCCCCCC/C=C\\CCCCCCCCOCCO", "potency (µM)": "63.11", "remark": "partial curve"}
{"smiles": "S=P(N1CC1)(N1CC1)N1CC1", "potency (µM)": "4.066", "remark": "inhibitor"}
{"smiles": "COc1ccccc1NC(=O)CC(C)=O", "potency (µM)": "20.21", "remark": "fluorescent, full curve, poor fit"}
{"smiles": "Cc1ccc(-c2c(Cl)nc(C#N)n2S(=O)(=O)N(C)C)cc1", "potency (µM)": "38.53", "remark": "fluorescent, partial curve, poor fit"}
{"smiles": "N#Cc1c(Cl)c(Cl)c(Cl)c(C#N)c1Cl", "potency (µM)": "9.502", "remark": "rising, full curve"}
{"smiles": "CC(C)=CC1C(C(=O)OCc2coc(Cc3ccccc3)c2)C1(C)C", "stereo": "stereo not drawn", "potency (µM)": "76.88", "remark": "activator, partial curve, poor fit"}
{"smiles": "CC(=O)C(Cl)(Cl)Cl", "potency (µM)": "33.19", "remark": "rising, partial curve, poor fit"}
{"smiles": "CSc1ccc(/C=C2/C(C)=C(CC(=O)O)c3cc(F)ccc32)cc1", "potency (µM)": "9.439", "remark": "fluorescent, partial curve"}
{"smiles": "CN1CCc2cc3c(cc2C1O)OCO3", "stereo": "stereo not drawn", "potency (µM)": "54.82", "remark": "fluorescent"}
{"smiles": "NC(=O)N1C(=O)C(C(=O)c2cc(Cl)cs2)c2cc(F)c(Cl)cc21", "stereo": "stereo not drawn", "potency (µM)": "68.59", "remark": "fluorescent"}
{"smiles": "O=S1OCC2C(CO1)C1(Cl)C(Cl)=C(Cl)C2(Cl)C1(Cl)Cl", "stereo": "stereo not drawn", "potency (µM)": "61.19"}
{"smiles": "CN1CCN(CCCN2c3ccccc3Sc3ccc(Cl)cc32)CC1", "potency (µM)": "33.49"}
{"smiles": "CCCCNC(=O)n1c(NC(=O)OC)nc2ccccc21", "potency (µM)": "68.24", "remark": "rising, single point"}
{"smiles": "CC(=O)O[C@]1(C(C)=O)CC[C@H]2[C@@H]3C=C(Cl)C4=CC(=O)[C@@H]5C[C@@H]5[C@]4(C)[C@H]3CC[C@@]21C", "potency (µM)": "13.67", "remark": "fluorescent"}

For reference, 3 entries once more:

| SMILES | potency (µM) | remark |
|---|---|---|
| `CC(=O)Oc1ccccc1C(=O)Nc1ncc([N+](=O)[O-])s1` | 13.33 | - |
| `CC(=O)C(Cl)(Cl)Cl` | 33.19 | rising, partial curve, poor fit |
| `O=S1OCC2C(CO1)C1(Cl)C(Cl)=C(Cl)C2(Cl)C1(Cl)Cl` (stereo not drawn) | 61.19 | - |